Reference: patent publication US20240165097A1, “PHARMACEUTICAL COMPOSITION FOR THE TREATMENT OF ALZHEIMER'S DISEASE OR DEMENTIA” (Heptares Therapeutics Limited, priority 2021, published 2024)

What was measured:
[1] = 5 mg x5 days then 10 mg once daily
[2] = in humans; cited from earlier work

For `COc1cc2c(cc1OC)C(=O)C(CC1CCN(Cc3ccccc3)CC1)C2` (stereo not drawn) [Donepezil, 2-[(1-benzylpiperidin-4-yl)methyl]-5,6-dimethoxy-2,3-dihydro-1 H-inden-1-one, reference compound], the donepezil pharmacokinetic steady-state [1] is given as “at pharmacokinetic steady-state by the time of the 18th donepezil dose”, the Tmax [2] is given as 3 to 4 h and the half-life [2] is given as “approximately 70 hours”.
